This list was built around the results that the source calls inconclusive (neither active nor inactive); the mix of calls is not that of the screen. Potencies of inconclusive entries are doubtful fits and often do not repeat. The source made the active and inactive calls. Calls follow the shape of the dose curve; as a rule, active = well fitted curve in the direction sought with a large enough effect; inconclusive = small, poorly fitted or top-dose-only effect, or another doubt; inactive = no such curve, though single readings can be large; an effect the other way counts as inactive or inconclusive.
Experiments:
[1] = Quantitative High-Throughput drug screen in 47 multiple myeloma cell lines against the NCATS MIPE library collection: JIM3_ECACC cell viability assay (AID 1918963; also: nearly all actives have a fitted effect of over 35% in size); settings: JIM3 myeloma viability, CellTiter-Glo ATP, 48 h; viability, percent of control: at 45.8 µM (top of the series) unless noted
Outline: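 Viability readout: CellTiter-Glo luminescence following 5 min room-temperature incubation with reagent. Prior exposure: 48 h, 37C, humidified 5% CO2, 500 cells per well.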

[2] = Quantitative High-Throughput drug screen in 47 multiple myeloma cell lines against the NCATS MIPE library collection: JIM1_ECACC cell viability assay (AID 1918964); settings: JIM1 myeloma viability, CellTiter-Glo ATP luminescence, 48 h; viability (% of DMSO): at 45.8 µM (top of the series)
Outline: (§1)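 Myeloma cells (500 per well) were exposed to MIPE 4.0 compounds by pin transfer and incubated 48 hours at 37C, 5% CO2. Viability was read as ATP by CellTiter-Glo luminescence, normalised to DMSO (100%) and media-only (0%) wells.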

[3] = Quantitative High-Throughput drug screen in 47 multiple myeloma cell lines against the NCATS MIPE library collection: H1112_PLB cell viability assay (AID 1918967; also: nearly all actives have a fitted effect of over 30% in size); settings: H1112 myeloma cells viability, ATP luminescence, 48 h; viability: at 45.8 µM (top of the series)
Outline: as §1

[4] = Quantitative High-Throughput drug screen in 47 multiple myeloma cell lines against the NCATS MIPE library collection: KMS27_JCRB cell viability assay (AID 1918970); settings: KMS27 myeloma cells, CellTiter-Glo ATP viability, 48 h; viability (% of DMSO): at 45.8 µM (top of the series); also: nearly all actives have a fitted effect of over 30% in size
Outline: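 CellTiter-Glo luminescence after 48 h drug exposure at 37 °C; 500 cells/well, 1536-well format, pin-tool compound addition; DMSO = 100%, media-only = 0% viability.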

[5] = Quantitative High-Throughput drug screen in 47 multiple myeloma cell lines against the NCATS MIPE library collection: KMS20_JCRB cell viability assay (AID 1918973); settings: CellTiter-Glo ATP, 48 h; viability (% of DMSO): at 45.8 µM (top of the series); also: nearly all actives have a fitted effect of over 45% in size
Outline: as §1

[6] = Quantitative High-Throughput drug screen in 47 multiple myeloma cell lines against the NCATS MIPE library collection: KMS21BM_JCRB cell viability assay (AID 1918974); settings: ATP luminescence, 48 h; viability: at 45.8 µM (top of the series) unless noted
Outline: as §1

[7] = Quantitative High-Throughput drug screen in 47 multiple myeloma cell lines against the NCATS MIPE library collection: KMS26_JCRB cell viability assay (AID 1918975); settings: KMS26 myeloma cells viability, CellTiter-Glo ATP, 48 h; viability (% of DMSO): at 45.8 µM (top of the series); also: nearly all actives have a fitted effect of over 45% in size
Outline: (§2)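 Approved and investigational drugs from MIPE 4.0 were added by pin tool to 500 cells per well. After 48 hours at 37C, ATP-based CellTiter-Glo luminescence indicated remaining viability.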

[8] = Quantitative High-Throughput drug screen in 47 multiple myeloma cell lines against the NCATS MIPE library collection: MOLP8_DSMZ cell viability assay (AID 1918977); settings: MOLP8 myeloma viability, CellTiter-Glo ATP luminescence, 48 h; viability (% of control): at 45.8 µM (top of the series); also: nearly all actives have a fitted effect of over 45% in size
Outline: (§3)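 MIPE 4.0 approved/investigational drugs; 500 cells/well; 48 h 37 °C humidified 5% CO2; CTG luminescence readout; DMSO = 100%, media = 0% viability.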

[9] = Quantitative High-Throughput drug screen in 47 multiple myeloma cell lines against the NCATS MIPE library collection: MM1S_ATCC cell viability assay (AID 1918980); also: nearly all actives have a fitted effect of over 45% in size
Outline: as §3

[10] = Quantitative High-Throughput drug screen in 47 multiple myeloma cell lines against the NCATS MIPE library collection: MM1R_ATCC cell viability assay (AID 1918981); also: nearly all actives have a fitted effect of over 35% in size
Outline: as §3

[11] = Quantitative High-Throughput drug screen in 47 multiple myeloma cell lines against the NCATS MIPE library collection: LP1_DSMZ cell viability assay (AID 1918982); also: nearly all actives have a fitted effect of over 35% in size
Outline: as §3

[12] = Quantitative High-Throughput drug screen in 47 multiple myeloma cell lines against the NCATS MIPE library collection: JJN3_DSMZ cell viability assay (AID 1918966; also: nearly all actives have a fitted effect of over 50% in size); settings: JJN3 myeloma cells viability, CellTiter-Glo ATP, 48 h; viability, % of DMSO: at 45.8 µM (top of the series)
Outline: as §1

[13] = Quantitative High-Throughput drug screen in 47 multiple myeloma cell lines against the NCATS MIPE library collection: Karpas25_ECACC cell viability assay (AID 1918968; also: nearly all actives have a fitted effect of over 35% in size); settings: Karpas25 myeloma viability, CellTiter-Glo ATP, 48 h; viability (% of control): at 45.8 µM (top of the series)
Outline: as §1

[14] = Quantitative High-Throughput drug screen in 47 multiple myeloma cell lines against the NCATS MIPE library collection: NCIH929_DSMZ cell viability assay (AID 1918978); also: nearly all actives have a fitted effect of over 35% in size
Outline: as §3

[15] = Quantitative High-Throughput drug screen in 47 multiple myeloma cell lines against the NCATS MIPE library collection: OCIMY1_PLB cell viability assay (AID 1918979); also: nearly all actives have a fitted effect of over 35% in size
Outline: as §3

[16] = Quantitative High-Throughput drug screen in 47 multiple myeloma cell lines against the NCATS MIPE library collection: KMS28PE_JCRB cell viability assay (AID 1918983); also: nearly all actives have a fitted effect of over 35% in size
Outline: as §3

[17] = Quantitative High-Throughput drug screen in 47 multiple myeloma cell lines against the NCATS MIPE library collection: KMS12PE_JCRB cell viability assay (AID 1918972); settings: KMS12PE myeloma viability, CellTiter-Glo ATP, 48 h; viability: at 45.8 µM (top of the series); also: nearly all actives have a fitted effect of over 30% in size
Outline: as §2

[18] = Quantitative High-Throughput drug screen in 47 multiple myeloma cell lines against the NCATS MIPE library collection: MMM1_PLB cell viability assay (AID 1918976); also: nearly all actives have a fitted effect of over 35% in size
Outline: as §3

[19] = Quantitative High-Throughput drug screen in 47 multiple myeloma cell lines against the NCATS MIPE library collection: KMS12BM_JCRB cell viability assay (AID 1918971); also: nearly all actives have a fitted effect of over 35% in size
Outline: as §2

[20] = Quantitative High-Throughput drug screen in 47 multiple myeloma cell lines against the NCATS MIPE library collection: INA6_PLB cell viability assay (AID 1918965; also: nearly all actives have a fitted effect of over 55% in size); settings: INA6 myeloma viability, CellTiter-Glo ATP luminescence, 48 h; viability (% of control): at 45.8 µM (top of the series)
Outline: as §2
Potency is read from the fitted curve at half-maximal effect.

CN(C)c1ccc(O)c2c1C[C@H]1C[C@H]3[C@H](N(C)C)C(=O)C(C(N)=O)=C(O)[C@@]3(O)C(=O)C1=C2O
inconclusive: Potency [1] 18.7 µM [cytotoxic, partial curve] | Potency [3] 20.9 µM [cytotoxic, single point] | Potency [4] 0.105 µM [cytotoxic, full curve, poor fit] | Potency [5] 29.6 µM [cytotoxic, single point] | Potency [6] 37.2 µM [rising, partial curve, poor fit] | Potency [11] 14.8 µM [cytotoxic, partial curve]
inactive: Potency [2]
active: Potency [7] 13.2 µM | Potency [8] 20.9 µM | Potency [9] 3.72 µM | Potency [10] 16.6 µM

COc1nccc(-c2c(-c3ccc(F)cc3)ncn2C2CCNCC2)n1
inconclusive: Potency [1] 5.9 µM [cytotoxic, partial curve, poor fit] | Potency [2] 0.0021 µM [cytotoxic, full curve, poor fit] | Potency [12] 1.05 µM [cytotoxic, full curve, poor fit] | Potency [6] 11.8 µM [rising, full curve] | Potency [8] 20.9 µM [cytotoxic, partial curve, poor fit] | Potency [14] 18.7 µM [cytotoxic, partial curve, poor fit] | Potency [15] 4.18 µM [cytotoxic, partial curve, poor fit] | Potency [9] 37.2 µM [cytotoxic, partial curve, poor fit] | Potency [10] 37.2 µM [cytotoxic, single point]
active: Potency [16] 13.2 µM
inactive: Potency [13] | Potency [5] | Potency [11]

CN(C)CC[C@H](CSc1ccccc1)Nc1ccc(S(=O)(=O)NC(=O)c2ccc(N3CCN(Cc4ccccc4-c4ccc(Cl)cc4)CC3)cc2)cc1[N+](=O)[O-]
active: Potency [2] 1.48 µM | Potency [12] 8.33 µM | Potency [4] 0.0187 µM | Potency [17] 0.0235 µM | Potency [6] 0.0833 µM | Potency [7] 1.66 µM | Potency [18] 0.526 µM | Potency [15] 3.72 µM | Potency [11] 23.5 µM
inconclusive: Potency [1] 18.7 µM [cytotoxic, partial curve] | Potency [8] 16.6 µM [cytotoxic, partial curve, poor fit] | Potency [14] 16.6 µM [cytotoxic, partial curve]

O=C1NC(=O)C(=Cc2ccc3c(c2)OC(F)(F)O3)S1
inconclusive: Potency [1] 33.2 µM [cytotoxic, single point] | Potency [12] 0.0017 µM [cytotoxic, full curve, poor fit] | Potency [4] 37.2 µM [cytotoxic, single point] | Potency [19] 26.4 µM [cytotoxic, single point] | Potency [17] 20.9 µM [cytotoxic, partial curve] | Potency [14] 29.6 µM [cytotoxic, single point] | Potency [10] 20.9 µM [cytotoxic, single point]
inactive: Potency [2] | Potency [8]
active: Potency [5] 13.2 µM | Potency [6] 3.32 µM | Potency [18] 10.5 µM

CC(=O)OC1C(C)OC(Oc2c(-c3ccc(O)cc3)oc3cc(O)cc(O)c3c2=O)C(O)C1OC(C)=O (stereo not given)
inactive: Potency [1]
active: Potency [5] 11.8 µM
inconclusive: Potency [2] 8.33 µM [cytotoxic, partial curve, poor fit] | Potency [12] 3.72 µM [cytotoxic, full curve, poor fit] | viability (% of control) [13] 97.7% [cytotoxic] | Potency [19] 1.05 µM [cytotoxic, partial curve, poor fit] | Potency [17] 11.8 µM [cytotoxic, single point] | Potency [6] 37.2 µM [rising, single point] | Potency [7] 20.9 µM [cytotoxic, partial curve, poor fit] | Potency [8] 0.0033 µM [cytotoxic, full curve, poor fit] | Potency [15] 0.001 µM [cytotoxic] | Potency [10] 9.35 µM [cytotoxic, partial curve, poor fit]

NCCS(=O)(=O)O
inactive: Potency [19] | Potency [17] | Potency [5] | Potency [15] | Potency [9] | Potency [11] | Potency [16]
inconclusive: Potency [1] 1.48 µM [cytotoxic, full curve, poor fit] | Potency [2] 13.2 µM [cytotoxic, partial curve, poor fit] | Potency [12] 0.0118 µM [cytotoxic, full curve, poor fit] | Potency [6] 26.4 µM [rising, partial curve] | Potency [18] 0.0017 µM [cytotoxic, full curve, poor fit] | Potency [8] 1.48 µM [cytotoxic, full curve, poor fit]

CN1CCN(CCOc2cc(OC3CCOCC3)c3c(Nc4c(Cl)ccc5c4OCO5)ncnc3c2)CC1
inconclusive: Potency [12] 16.6 µM [cytotoxic, partial curve, poor fit] | Potency [19] 37.2 µM [cytotoxic, single point] | Potency [7] 37.2 µM [cytotoxic, single point] | Potency [18] 0.0118 µM [rising, full curve] | Potency [9] 33.2 µM [cytotoxic, single point] | Potency [10] 37.2 µM [cytotoxic, single point] | Potency [11] 18.7 µM [cytotoxic, partial curve, poor fit] | Potency [16] 33.2 µM [cytotoxic, single point]
active: Potency [1] 23.5 µM | Potency [2] 20.9 µM | Potency [6] 1.87 µM | Potency [14] 18.7 µM

CN1C2CCC1CC(OC(=O)C(CO)c1ccccc1)C2 (stereo not given)
inconclusive: Potency [13] 11.8 µM [cytotoxic, partial curve, poor fit] | Potency [6] 0.003 µM [cytotoxic, full curve, poor fit] | Potency [9] 0.209 µM [cytotoxic, full curve, poor fit]
inactive: Potency [2] | Potency [20] | Potency [12] | Potency [3] | Potency [4] | Potency [19] | Potency [5] | Potency [7] | Potency [18] | Potency [8] | Potency [11] | Potency [16]

For reference, 2 of the compounds above:
NCCS(=O)(=O)O
inactive: Potency [19] | Potency [17] | Potency [5] | Potency [15] | Potency [9] | Potency [11] | Potency [16]
inconclusive: Potency [1] 1.48 µM [cytotoxic, full curve, poor fit] | Potency [2] 13.2 µM [cytotoxic, partial curve, poor fit] | Potency [12] 0.0118 µM [cytotoxic, full curve, poor fit] | Potency [6] 26.4 µM [rising, partial curve] | Potency [18] 0.0017 µM [cytotoxic, full curve, poor fit] | Potency [8] 1.48 µM [cytotoxic, full curve, poor fit]

CN1CCN(CCOc2cc(OC3CCOCC3)c3c(Nc4c(Cl)ccc5c4OCO5)ncnc3c2)CC1
inconclusive: Potency [12] 16.6 µM [cytotoxic, partial curve, poor fit] | Potency [19] 37.2 µM [cytotoxic, single point] | Potency [7] 37.2 µM [cytotoxic, single point] | Potency [18] 0.0118 µM [rising, full curve] | Potency [9] 33.2 µM [cytotoxic, single point] | Potency [10] 37.2 µM [cytotoxic, single point] | Potency [11] 18.7 µM [cytotoxic, partial curve, poor fit] | Potency [16] 33.2 µM [cytotoxic, single point]
active: Potency [1] 23.5 µM | Potency [2] 20.9 µM | Potency [6] 1.87 µM | Potency [14] 18.7 µM

Additional compounds follow:

CO[C@H]1C[C@@H]2CC[C@@H](C)[C@@](O)(O2)C(=O)C(=O)N2CCCC[C@@H]2C(=O)O[C@H]([C@H](C)C[C@@H]2CC[C@H](OC(=O)C(C)(CO)CO)[C@H](OC)C2)CC(=O)[C@H](C)C=C(C)[C@@H](O)[C@@H](OC)C(=O)[C@H](C)C[C@H](C)C=CC=CC=C1C
inactive: Potency [9]
inconclusive: Potency [2] 11.8 µM [cytotoxic, partial curve] | Potency [20] 5.9 µM [cytotoxic, partial curve] | Potency [12] 33.2 µM [cytotoxic, single point] | Potency [3] 26.4 µM [cytotoxic, single point] | Potency [4] 33.2 µM [cytotoxic, partial curve, poor fit] | Potency [19] 37.2 µM [cytotoxic, single point] | Potency [17] 10.5 µM [cytotoxic, full curve] | Potency [7] 37.2 µM [cytotoxic, single point] | Potency [18] 33.2 µM [cytotoxic, single point] | Potency [8] 33.2 µM [cytotoxic, single point] | Potency [15] 37.2 µM [cytotoxic, single point] | Potency [10] 26.4 µM [cytotoxic, single point] | Potency [11] 37.2 µM [cytotoxic, single point] | Potency [16] 37.2 µM [cytotoxic, single point]
active: Potency [13] 13.2 µM

N[C@@H](CC(=O)N1CCn2c(nnc2C(F)(F)F)C1)Cc1cc(F)c(F)cc1F
inactive: Potency [2] | Potency [3] | Potency [13] | Potency [4] | Potency [19] | Potency [14] | Potency [11]
active: Potency [18] 1.87 µM
inconclusive: Potency [20] 13.2 µM [cytotoxic, single point] | Potency [12] 5.26 µM [cytotoxic, partial curve, poor fit] | Potency [5] 0.743 µM [cytotoxic, full curve, poor fit] | Potency [6] 37.2 µM [rising, partial curve] | Potency [7] 0.0662 µM [cytotoxic, full curve, poor fit] | Potency [8] 0.372 µM [cytotoxic, full curve, poor fit]

From PubChem BioAssay (NCATS)
